Measured values from paper PMC7132798.

Assays:
[1] = target: T1, GFP-BICD1^WT (human) (UniProt Q96G01); assay: co-IP; GFP-Trap M beads; lysate of N2A-FLAG-TrkB cells co-transfected with HA-PTPN23 and GFP-BICD1 variants, 0.2% NP-40 lysis buffer, 2 h at 4°C; anti-HA and anti-GFP blots
T1 sequence: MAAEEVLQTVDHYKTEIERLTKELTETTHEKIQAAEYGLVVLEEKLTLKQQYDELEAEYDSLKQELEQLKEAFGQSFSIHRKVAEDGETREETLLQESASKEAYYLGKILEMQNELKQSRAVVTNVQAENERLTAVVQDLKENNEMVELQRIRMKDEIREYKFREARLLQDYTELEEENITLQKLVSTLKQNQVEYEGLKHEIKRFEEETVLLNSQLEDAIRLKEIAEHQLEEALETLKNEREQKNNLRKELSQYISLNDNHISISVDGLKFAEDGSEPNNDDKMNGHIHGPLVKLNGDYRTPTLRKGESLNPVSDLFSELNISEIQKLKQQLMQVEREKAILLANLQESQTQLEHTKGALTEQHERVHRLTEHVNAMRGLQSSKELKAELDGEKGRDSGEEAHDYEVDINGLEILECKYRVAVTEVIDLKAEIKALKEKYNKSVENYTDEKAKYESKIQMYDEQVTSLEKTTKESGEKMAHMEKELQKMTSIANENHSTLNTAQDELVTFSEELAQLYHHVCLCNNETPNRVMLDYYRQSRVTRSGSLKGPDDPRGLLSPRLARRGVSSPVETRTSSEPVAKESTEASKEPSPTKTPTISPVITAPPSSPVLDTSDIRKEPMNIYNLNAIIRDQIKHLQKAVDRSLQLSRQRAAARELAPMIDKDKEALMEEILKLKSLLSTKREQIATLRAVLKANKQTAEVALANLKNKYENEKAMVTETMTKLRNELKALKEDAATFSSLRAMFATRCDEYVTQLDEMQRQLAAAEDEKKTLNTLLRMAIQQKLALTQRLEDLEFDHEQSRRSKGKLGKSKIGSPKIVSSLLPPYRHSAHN

[2] = target: T2, GST-CC1^95-265 (human) (UniProt Q96G01); assay: pull-down; GST-BICD1 fusion proteins on GSH resin, incubated 2 h at 4°C with N2A-FLAG-TrkB lysate containing overexpressed HA-PTPN23 in 0.4% NP-40 lysis buffer; anti-HA blot; only the target purified
T2 sequence: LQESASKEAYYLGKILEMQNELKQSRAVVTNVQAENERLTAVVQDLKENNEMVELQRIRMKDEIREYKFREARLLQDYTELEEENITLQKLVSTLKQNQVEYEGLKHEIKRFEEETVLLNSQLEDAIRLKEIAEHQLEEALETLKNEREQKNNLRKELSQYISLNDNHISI

[3] = target: T2, GST-CC1^95-265 (human); assay: pull-down; GST-CC1^95-265 or GST on GSH resin, incubated 2 h at 4°C with bacterial extracts containing His6-PTPN23 fragments in lysis buffer; anti-His6 blot; only the target purified

HA-PTPN23 (human) was tested, and the binding [1] was “binds” and the binding [2] was “binds”.
In the case of “His-V/CC^401-653 (human) (domain or fragment)”, the binding [3] was “binds”.

Results are given in words; binding and its absence hold for the method and conditions named. In cells and extracts the contact can be indirect. A result given as binding can be weak or reduced; the word gives no strength. Tags and fused reporters may be left off the sequences shown.
